In the supplement of paper PMC3334620:
Whole data set: some 33,000 sequences, median “E-score (-0.5 to 0.5)” near -0.015, cut for the highest 2% near 0.3. Some of the results follow.

The sequences below were run against T1, Abf1 (UniProt P14164) (assay: PBM E-score (8-mer binding enrichment) (E-score (-0.5 to 0.5)); higher = stronger / more preferred TF binding). Conditions: protein concentration: 200 nM; construct: GST-full length.
T1 sequence: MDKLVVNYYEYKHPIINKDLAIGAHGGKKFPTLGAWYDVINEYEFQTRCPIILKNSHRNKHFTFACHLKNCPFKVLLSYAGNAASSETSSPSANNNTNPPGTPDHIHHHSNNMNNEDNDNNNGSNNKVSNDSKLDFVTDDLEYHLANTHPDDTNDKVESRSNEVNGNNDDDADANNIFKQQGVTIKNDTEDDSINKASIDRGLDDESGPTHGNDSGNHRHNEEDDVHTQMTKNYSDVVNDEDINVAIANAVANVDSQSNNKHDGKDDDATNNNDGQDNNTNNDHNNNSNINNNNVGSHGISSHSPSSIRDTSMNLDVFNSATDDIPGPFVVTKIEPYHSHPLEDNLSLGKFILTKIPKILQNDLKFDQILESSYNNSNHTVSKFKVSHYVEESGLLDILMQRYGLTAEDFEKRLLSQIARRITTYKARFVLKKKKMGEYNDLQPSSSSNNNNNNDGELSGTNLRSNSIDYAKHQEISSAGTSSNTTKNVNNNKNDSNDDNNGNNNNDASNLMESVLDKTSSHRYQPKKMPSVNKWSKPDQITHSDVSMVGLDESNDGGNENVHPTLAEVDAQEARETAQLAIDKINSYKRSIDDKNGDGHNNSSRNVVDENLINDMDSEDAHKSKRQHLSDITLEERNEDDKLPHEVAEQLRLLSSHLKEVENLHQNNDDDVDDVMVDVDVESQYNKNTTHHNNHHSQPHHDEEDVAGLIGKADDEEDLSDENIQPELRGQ
Outline: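 Full-length yeast transcription factors or their DNA-binding domains, GST-tagged and expressed with PURExpress, were applied at about 100-200 nM to universal all-10-mer Agilent arrays. These arrays had been made double-stranded by primer extension on fresh or once-stripped slides. Detection used fluorescent anti-GST, normalisation used masliner, and E-scores for ungapped eight-base words pooled with reverse complements came from the Universal PBM Analysis Suite.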
In the case of AGGTTCCC, the “PBM E-score” value is reported as -0.2.
CGCTCTAG was tested, and the “PBM E-score” value was -0.276.
GTCTACAC was tested, and the “PBM E-score” value was -0.0648.
In the case of CATCCCTA, the “PBM E-score” value is reported as 0.0381.
CCTACTGC was tested, and the “PBM E-score” value was -0.0438.
ACCGGAAG was tested, and the “PBM E-score” value was 0.052.
With AGAGCTAT the “PBM E-score” value was -0.142.
In the case of GTCAGTAA, the “PBM E-score” value is reported as -0.0323.
In the case of AATATCCG, the “PBM E-score” value is reported as 0.153.
For AACTAACA, the “PBM E-score” value was 0.183.
In the case of AAGCATCT, the “PBM E-score” value is reported as -0.0815.
For CGAGCGAC, the “PBM E-score” value was 0.0297.
In the case of AGTAACCA, the “PBM E-score” value is reported as -0.144.
AACCACTC was tested, and the “PBM E-score” value was -0.193.
In the case of ACAATTGT, the “PBM E-score” value is reported as -0.0948.
With ACCTATGA the “PBM E-score” value was -0.0753.
In the case of CCCTATCA, the “PBM E-score” value is reported as -0.0764.
With CTTGCGGC the “PBM E-score” value was -0.151.
With CTCCAGGC the “PBM E-score” value was -0.139.
With CTTCTGCA the “PBM E-score” value was 0.071.
With GCGAACGA the “PBM E-score” value was 0.0921.
ATGCGACA was tested, and the “PBM E-score” value was 0.207.
With ACACCCTC the “PBM E-score” value was -0.235.
With GGCCGGCC the “PBM E-score” value was -0.146.
With AATCCCGG the “PBM E-score” value was -0.189.
With GGCAGCAA the “PBM E-score” value was -0.156.
With ACAATTTA the “PBM E-score” value was -0.0719.
With TCACACAA the “PBM E-score” value was 0.0163.
GAATCTGA was tested, and the “PBM E-score” value was 0.0765.
For AACGCACG, the “PBM E-score” value was 0.243.
With AATCGTGT the “PBM E-score” value was 0.271.
In the case of AAGATGTC, the “PBM E-score” value is reported as 0.0418.
ACGTCCGA was tested, and the “PBM E-score” value was 0.137.
In the case of AGTCTTAC, the “PBM E-score” value is reported as -0.152.
AGCTTGCA was tested, and the “PBM E-score” value was -0.178.
AAGTTTGA was tested, and the “PBM E-score” value was 0.00335.
For CACGAGCC, the “PBM E-score” value was 0.16.
AACTCGGA was tested, and the “PBM E-score” value was -0.116.
With AGACGTCA the “PBM E-score” value was 0.107.
For CTTTCCAA, the “PBM E-score” value was 0.0814.
In the case of AAGCACAT, the “PBM E-score” value is reported as 0.0722.
For GCAGACCC, the “PBM E-score” value was -0.286.
CGTATTCC was tested, and the “PBM E-score” value was 0.189.
For CATGGTGG, the “PBM E-score” value was -0.174.
For GATCCGAC, the “PBM E-score” value was 0.0109.
In the case of ACTCGGCT, the “PBM E-score” value is reported as -0.088.
CGGCAGCC was tested, and the “PBM E-score” value was -0.0383.
With AGTCCATA the “PBM E-score” value was 0.0757.
AATCTTAC was tested, and the “PBM E-score” value was 0.13.
AGAGATTA was tested, and the “PBM E-score” value was 0.0822.
In the case of ACTAACCA, the “PBM E-score” value is reported as 0.0119.
For GCGCCTAA, the “PBM E-score” value was 0.247.
For CATAGGAG, the “PBM E-score” value was -0.135.
With ACCCGACG the “PBM E-score” value was 0.00691.
For AGAACCGG, the “PBM E-score” value was -0.244.
In the case of ACGCCTCC, the “PBM E-score” value is reported as -0.2.
For ATCCCCAG, the “PBM E-score” value was -0.034.
With AAATCCTA the “PBM E-score” value was -0.00873.
CACCGAAA was tested, and the “PBM E-score” value was 0.058.
In the case of CTCACAGC, the “PBM E-score” value is reported as -0.0854.
ATCTGCGG was tested, and the “PBM E-score” value was -0.0296.
ACCAATTG was tested, and the “PBM E-score” value was -0.00572.
With CCGTTGCC the “PBM E-score” value was -0.201.
For CCCGGCGC, the “PBM E-score” value was -0.147.
For ATCTGAAT, the “PBM E-score” value was 0.0175.
For ACTGAAGA, the “PBM E-score” value was -0.00996.
AGGGGGAG was tested, and the “PBM E-score” value was -0.427.
With AGCCGTTG the “PBM E-score” value was 0.153.
With CCGAACTC the “PBM E-score” value was -0.141.
For AGTGCAGG, the “PBM E-score” value was -0.201.
In the case of ACAGGGAG, the “PBM E-score” value is reported as -0.0871.
In the case of GGCTGTCA, the “PBM E-score” value is reported as 0.0901.
With CCATGTAA the “PBM E-score” value was -0.0371.
ACTCTCAT was tested, and the “PBM E-score” value was 0.116.
For AGCGGAAA, the “PBM E-score” value was -0.0245.
With AGATACCA the “PBM E-score” value was 0.045.
With ATACCTTA the “PBM E-score” value was 0.228.
For TAAGGCAA, the “PBM E-score” value was -0.17.
CCACGGCA was tested, and the “PBM E-score” value was 0.198.
With AGTCATTG the “PBM E-score” value was 0.00581.
In the case of AGTGTTAG, the “PBM E-score” value is reported as -0.132.
In the case of TCAGGCCA, the “PBM E-score” value is reported as -0.216.
ATCCTCAT was tested, and the “PBM E-score” value was 0.0287.
In the case of GGTCCGCA, the “PBM E-score” value is reported as -0.0891.
AGGCAGTC was tested, and the “PBM E-score” value was -0.0418.
In the case of CTAATAAG, the “PBM E-score” value is reported as -0.0784.
